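Assay of Toxoplasma gondii numbers, read through their beta-galactosidase reporter with a colour substrate. Compounds at 50 µM. Higher reads as fewer parasites (inferred from which compounds were picked for retests). Of about 18,000 compounds tested this way, about 170 (0.94%) reached 50% or more in at least one test.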

The filed quantity is “Percent Effect” (%).
The record does not define 0% and 100%; most values in the screen are far below 50% and negative numbers occur (in some assays of this library far below -100).
Compounds were drawn at random from those tested, without regard to their results.

* N[C@H]1C[C@@H](c2cc(NCC3CCOCC3)ncn2)C1 | -0.6998%
* COc1ccc(C(=O)NCCN(C)C)cc1F | 2.748%
* CC(C)c1ccsc1C(=O)NCCCC(N)=O | -1.934%
* Cc1ccc(C(=O)N(C)C)cc1Oc1ccncc1 | -3.15%
* Cc1ccnc(NC(=O)N[C@H](CO)C(C)C)c1 | 9.763%
* CCn1cc(S(=O)(=O)N2CCSCC2)cn1 | 0.4362%
* CC(=Cc1ccccc1)CN1CCC(C(N)=O)C1 (centres unmarked) | 0.6425%
* CC(CO)(CO)NC(=O)c1ccc(-c2ccccc2)o1 | -3.721%
* CN1CCC(NC(=O)c2cc(C(F)(F)F)nn2C)CC1 | -12.97%
* CNc1ncccc1N | -15.37%
* COc1ncccc1-c1cccc(C#N)n1 | 5.499%
* CCCNC(=O)N1CCC2(CC1)OCCO2 | -5.458%
* N[C@@H]1CC[C@@H]1NC(=O)c1scc2c1OCCO2 | -7.783%
* O=C1CC(C(=O)N2CCOC3(CCCC3)C2)CCN1 (centres unmarked) | -8.974%
* CC(C)CN1CCC(N)CC1 | 4.965%
* Cc1nc(C(=O)NCC2CN(S(C)(=O)=O)CCO2)cs1 (centres unmarked) | -6.374%
* CC(C)C(=O)NC1CCCNC1 (centres unmarked) | 4.1%
* CC(NC(N)=O)C(=O)NCCc1ccc(Cl)cc1 (centres unmarked) | -2.492%
* Cc1cc(NC(=O)CCN2CCn3ccnc3C2)no1 | 6.649%
* CCN1CCCN(C(=O)Nc2ccc(C)cc2)CC1 | 8.719%
* CCCNC(=O)Cn1cc(NC(=O)C(C)(C)C)cn1 | 6.168%
* Cc1nc(C(C)(C)N)sc1C | 0.4086%
* Cc1nc(-c2ccccn2)sc1C(=O)NC(C)C | -4.731%
* Cc1cc(O)ccc1C(=O)NCC1(O)CCNC1 (centres unmarked) | 4.662%
* COC1(CNC(=O)c2cc(Cl)ccn2)CCC1 | 7.056%
* COc1ccc(F)cc1C(=O)Nc1cnns1 | -9.103%
* NCc1nc(-c2ccc(OC(F)(F)F)cc2)no1 | -1.738%
* COC(=O)CC1CN(CCc2ccccn2)CCO1 (centres unmarked) | -7.319%
* CCC(=O)NC(CC)c1ccc(OC)c(OC)c1 (centres unmarked) | -2.12%
* COC(=O)CCCC(=O)N1CCCc2ccccc2C1 | -3.753%
* O=C(CSc1cnn[nH]1)N1CCc2ccccc2C1 | -0.5627%
* O=C(NCCCNCc1cccnc1)c1ccsc1 | -5.505%
* COCCNC1CC1 | 0.243%
* c1cc2c(cn1)NCCCN2 | 3.248%
* O=C1CCC(=O)N1CCSc1ccc2ccccc2n1 | 0.6037%
* CCC(=O)N1CCC(C2CCN(C(C)=O)CC2)C1 (centres unmarked) | -4.815%
* Cc1cc(CNC(=O)C2(C)CCN(C)CC2)n(C)n1 | -0.5324%
* NCC(=O)N1CCCC(CCc2ccc(F)cc2F)C1 (centres unmarked) | 12.13%
* CO[C@@H]1CCOC[C@H]1NC(=O)Cc1cnccn1 | -0.9318%
* NCc1cccc(-c2ccccn2)n1 | 73.75%

Once more, the final 4:

- Cc1cc(CNC(=O)C2(C)CCN(C)CC2)n(C)n1 : -0.5324%
- NCC(=O)N1CCCC(CCc2ccc(F)cc2F)C1 (centres unmarked) : 12.13%
- CO[C@@H]1CCOC[C@H]1NC(=O)Cc1cnccn1 : -0.9318%
- NCc1cccc(-c2ccccn2)n1 : 73.75%

Measurements from “University of Dundee, Small-Polar-MMV Screening Library” (2021), ChEMBL document CHEMBL3988442.